Where a chain is given by its changes, count along the chain named. Names may count otherwise. These are yes or no findings as the source states them, for the method shown. In cells and extracts the contact can be indirect. Some results given as binding are weak or reduced against the parent protein; the word gives no strength.
B1: FREQUENCY (FRQ), wild type (protein, UniProt P19970 1-989)
chain: MADSGDKSQGMRPPPFDSRGHPLPRRASPDKSITLENHRLARDTSSRVTSSSALGVTESQPQLKSSPTRRNSSGESEPTNWFNQSNRNPAAAFHDESHIMEVDPPFYQKETDSSNEESRYPPGRNPVHPPGGVQLPGFRPVAAHSSAADDYRSVIDDLTVENKRLKEELKRYKQFGSDVMRKEKLFEIKVHGLPRRKKRELEATLRDFAASLGDSSESTSQRRKTGRHGTAVHSSGVSLSKHDSSSSSRSRPVDSAYNSMSTGRSSHAPHSSGPSLGRPSLTRAKSVGTQKVENYLRDTPDGLLPHHIVMTDKEKKKLVVRRLEQLFTGKISGRNMQRNQSMPSMDAPLAPEGTNMAPPRPPPEGLREACIQLQDGDNPRKNRSSKDNGSASNSGGDQTELGGTGTGSGDGSGSGGRTGNNTSPPGAIAPDQRPTRPRDLDPDRVQIPSENMDYIRHLGLVSPEFLQGSRTSYQDVAPDAEGWVYLNLLCNLAQLHMVNVTPSFIRQAVSEKSTKFQLSADGRKIRWRGGTDGTKFSSDSSEDKSQQSPMTEDTEDGSDKNGRRKKRKTQQASSEIGRFGPSRSPSDTFHYKPMFVHRNSSSIETSLEESMSQGSEDAVDESNMGNSKWDFSGSGTTQQRRKRRYDGAIVYYTGAPFCTDLSGDPGDMSPTAQMTAGREVEGSGSGDEVEHVLQRTLSGSSLPIRPLSDDRARVAEVLDFDPGNPPELVADDGSSPNDEDFVFPWCEDPAKVRIQPIAKEVMEPSGLGGVLPDDHFVMLVTTRRVVRPILQRQLSRSTTSEDTAEFIAERLAAIRTSSPLPPRSHRLTVAPLQVEYVSGQFRRLNPAPLPPPAIFYPPFSTDSSWDDGDDLASDDEEVEEVEEDSYSEGQISRRANPHFSDNNTYMRKDDLAFDTETDVRMDSDDNRLSDSGHNMRAMMPRAEAVDGDDSPLAAVTGKEVDMLHTGSSVATAGGAESGYSSSMEDVSSS
B2: FRQ S513R (protein, UniProt P19970 1-989)
chain: B1 chain with S513R
B3: FRQ S519A (protein, UniProt P19970 1-989)
chain: B1 chain with S519A

molecular target: T1, WHITE COLLAR 2 (WC-2) (Neurospora (endogenous in Neurospora extracts)) (UniProt P78714); experiment: co-IP; WC-2 antibody and GammaBind G Sepharose beads, 2 mg Neurospora extract (50 mM HEPES pH 7.4, 137 mM NaCl, 10% glycerol); WC-2 precipitated, FRQ detected by Western blot; cultures in LL, for the wild type also at time points in DD
T1 sequence: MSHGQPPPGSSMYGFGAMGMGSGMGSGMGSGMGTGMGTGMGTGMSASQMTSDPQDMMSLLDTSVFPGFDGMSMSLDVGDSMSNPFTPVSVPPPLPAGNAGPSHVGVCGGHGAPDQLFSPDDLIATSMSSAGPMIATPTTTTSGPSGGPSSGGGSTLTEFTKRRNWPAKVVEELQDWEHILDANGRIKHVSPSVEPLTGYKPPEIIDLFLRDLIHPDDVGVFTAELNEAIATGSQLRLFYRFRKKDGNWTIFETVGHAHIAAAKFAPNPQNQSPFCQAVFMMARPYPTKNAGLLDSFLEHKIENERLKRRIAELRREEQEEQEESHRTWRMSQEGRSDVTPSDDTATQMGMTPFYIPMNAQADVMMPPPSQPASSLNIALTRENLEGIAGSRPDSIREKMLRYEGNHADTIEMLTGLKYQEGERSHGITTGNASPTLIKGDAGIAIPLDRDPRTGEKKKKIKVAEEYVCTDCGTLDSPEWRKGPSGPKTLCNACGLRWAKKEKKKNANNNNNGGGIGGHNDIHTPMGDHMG

Q: With B1 as the binder, how does the binding read?
A: binds

Q: Which binding does the source give for B2 here?
A: binds

Q: With B3 as the binder, how does the binding read?
A: binds
